Data: PubChem BioAssay AID624373 (Broad Institute, 2012)
The shares of active, inactive and inconclusive entries below differ from those in the screen. Activity calls are given as the source filed them.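 How the source made its calls: active means fitted curve reaches -35% activity change at up to twice the top valid dose, with every replicate test run active; inconclusive means replicate test runs disagree on the call; inactive means all runs inactive, no -35% crossing or signal rises.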

Test: inhibition of EBV LMP1-induced NF-kB luciferase – cell-based, HEK293, dry powder, dose response (AID 624373)
Settings: HEK293 LMP1-TES2 NF-kB luciferase reporter, 16 h; at 26 µM (top of the series) unless noted

Row | SMILES | activity change, negative = inhibition
1 | C/C(=N\NC(=S)N1CCN(c2ccccn2)CC1)c1ccccn1 | inconclusive: -116%
2 | C[C@@H]1CCCCO[C@@H](CN(C)Cc2ccccc2)[C@H](C)CN([C@H](C)CO)C(=O)c2cc(NC(=O)Nc3ccc4c(c3)OCO4)ccc2O1 | inactive: 10.6%
3 | S=C(N/N=C(\c1ccccc1)c1ccccn1)N(Cc1ccccn1)Cc1ccccn1 | inconclusive: -93.4%
4 | CC(=O)Nc1nc(C)c(-c2csc(Nc3ccc(O)cc3)n2)s1 | inconclusive: 44.3%
5 | Oc1cccc(C(Nc2nccs2)c2ccc3cccnc3c2O)c1 (configuration not stated) | inactive: 33.9%
6 | C[C@@H]1CN([C@@H](C)CO)C(=O)c2cccc(NC(=O)Nc3cccc4ccccc34)c2O[C@H]1CN(C)C(=O)Nc1ccc(C(F)(F)F)cc1 | inconclusive: -41.7%
7 | Cc1c(NC(=O)c2cccc(NC(=O)COc3ccccc3C#N)c2)c(=O)n(-c2ccccc2)n1C | inactive: 23.3%
8 | C[C@@H]1CCCCO[C@H](CN(C)CC2CCCCC2)[C@H](C)CN([C@@H](C)CO)C(=O)c2cc(NC(=O)NC3CCCCC3)ccc2O1 | inactive: 56.5%
9 | CCc1ccc(/C=C/C(=O)C2C(=O)c3ccccc3C2=O)cc1 | inconclusive: 13.8%
10 | C=C1C[C@]23C[C@@]1(O)CC[C@H]2[C@@]12C=C[C@H](O)[C@@](C)(C(=O)O1)[C@H]2[C@@H]3C(=O)O | inactive: 2.14% [at 15 µM]
11 | Cc1cc(NC(=O)c2ccc3c(c2)OCCO3)no1 | inactive: 1.38%
12 | C/C=C/C/C=C/CCC(=O)[C@H]1O[C@H]1C(N)=O | inconclusive: -43.2% [at 12 µM]

A different layout for some results above.
Row,SMILES,"activity change, negative = inhibition"
2,C[C@@H]1CCCCO[C@@H](CN(C)Cc2ccccc2)[C@H](C)CN([C@H](C)CO)C(=O)c2cc(NC(=O)Nc3ccc4c(c3)OCO4)ccc2O1,inactive: 10.6%
3,S=C(N/N=C(\c1ccccc1)c1ccccn1)N(Cc1ccccn1)Cc1ccccn1,inconclusive: -93.4%
